Results are given in words; binding and its absence hold for the method and conditions named.
Key:
Assay in all cases: condition: OC43 S1B+C from 3 to 100 nM or 16 to 250 nM; BLI; both purified
WNb 295 (alpaca) = target: WNb 295 (alpaca)
WNb 277 (alpaca) = target: WNb 277 (alpaca)
WNb 283 (alpaca) = target: WNb 283 (alpaca)
WNb 290 (alpaca) = target: WNb 290 (alpaca)

Measured: binding

OC43 S1B+C (S1B and S1C domains of the hCoV-OC43 spike glycoprotein) (from UniProt P36334 321-675) (domain or fragment)
no binding: all assays above
